The record followed here is the supplement of paper PMC12595434, “Development of retinoid nuclear receptor pathway antagonists through targeting aldehyde dehydrogenase 1A3” (iScience, 2025).

By UniProt entry, the sequences of proteins in these tests, tags left out. Where a name states a change or a piece, a line headed by the entry shows the natural chain unless it says otherwise.
UniProt Q96EY8: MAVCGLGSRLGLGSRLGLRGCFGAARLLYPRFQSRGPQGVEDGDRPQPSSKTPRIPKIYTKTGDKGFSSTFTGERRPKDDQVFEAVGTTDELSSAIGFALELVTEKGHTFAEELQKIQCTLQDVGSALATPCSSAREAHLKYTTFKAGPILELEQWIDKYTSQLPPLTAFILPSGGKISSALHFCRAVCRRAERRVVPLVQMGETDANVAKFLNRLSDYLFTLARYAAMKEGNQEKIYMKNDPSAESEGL
UniProt Q96GM5, whole entry: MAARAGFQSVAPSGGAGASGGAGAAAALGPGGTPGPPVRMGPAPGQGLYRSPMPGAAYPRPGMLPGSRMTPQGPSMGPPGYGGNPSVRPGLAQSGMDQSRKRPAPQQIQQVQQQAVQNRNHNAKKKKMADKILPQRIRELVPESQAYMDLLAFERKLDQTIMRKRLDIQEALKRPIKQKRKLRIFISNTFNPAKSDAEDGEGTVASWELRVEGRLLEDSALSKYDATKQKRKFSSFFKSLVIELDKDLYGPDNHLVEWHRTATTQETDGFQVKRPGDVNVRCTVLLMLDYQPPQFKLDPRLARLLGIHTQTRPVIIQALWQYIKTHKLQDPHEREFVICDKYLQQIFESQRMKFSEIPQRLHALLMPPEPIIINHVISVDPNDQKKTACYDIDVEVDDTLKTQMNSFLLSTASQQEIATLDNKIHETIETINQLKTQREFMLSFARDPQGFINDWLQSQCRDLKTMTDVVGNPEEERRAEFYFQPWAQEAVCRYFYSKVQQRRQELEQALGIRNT
UniProt Q96GE9: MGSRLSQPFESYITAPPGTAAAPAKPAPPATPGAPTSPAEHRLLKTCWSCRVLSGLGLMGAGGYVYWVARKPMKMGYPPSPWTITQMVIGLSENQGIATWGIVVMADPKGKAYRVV
UniProt Q96JQ2: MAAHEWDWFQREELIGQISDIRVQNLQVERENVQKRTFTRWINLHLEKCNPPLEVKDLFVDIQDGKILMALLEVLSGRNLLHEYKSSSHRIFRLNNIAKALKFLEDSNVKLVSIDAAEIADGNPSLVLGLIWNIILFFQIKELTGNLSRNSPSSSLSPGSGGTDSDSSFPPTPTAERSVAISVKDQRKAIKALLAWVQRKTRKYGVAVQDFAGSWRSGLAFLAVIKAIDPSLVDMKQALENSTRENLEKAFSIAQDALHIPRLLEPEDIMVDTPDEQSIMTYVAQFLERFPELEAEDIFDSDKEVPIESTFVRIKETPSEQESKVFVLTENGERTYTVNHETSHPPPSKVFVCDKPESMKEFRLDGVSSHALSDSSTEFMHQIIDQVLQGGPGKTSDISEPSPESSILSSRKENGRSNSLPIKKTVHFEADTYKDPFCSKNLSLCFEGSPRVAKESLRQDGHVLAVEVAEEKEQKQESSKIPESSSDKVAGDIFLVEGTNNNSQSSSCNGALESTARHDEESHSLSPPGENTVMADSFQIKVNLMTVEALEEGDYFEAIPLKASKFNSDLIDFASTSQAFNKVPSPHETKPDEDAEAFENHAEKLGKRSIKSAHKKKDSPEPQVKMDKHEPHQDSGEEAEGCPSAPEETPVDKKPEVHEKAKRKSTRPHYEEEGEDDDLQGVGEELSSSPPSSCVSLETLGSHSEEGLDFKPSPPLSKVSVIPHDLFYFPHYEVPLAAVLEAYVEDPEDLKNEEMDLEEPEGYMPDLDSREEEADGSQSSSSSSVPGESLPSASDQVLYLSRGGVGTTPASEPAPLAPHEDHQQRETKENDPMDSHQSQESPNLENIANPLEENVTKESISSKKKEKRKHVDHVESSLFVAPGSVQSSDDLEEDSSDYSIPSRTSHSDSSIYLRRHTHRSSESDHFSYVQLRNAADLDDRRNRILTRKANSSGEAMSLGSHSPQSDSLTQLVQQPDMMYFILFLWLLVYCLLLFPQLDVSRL
UniProt Q96HQ2: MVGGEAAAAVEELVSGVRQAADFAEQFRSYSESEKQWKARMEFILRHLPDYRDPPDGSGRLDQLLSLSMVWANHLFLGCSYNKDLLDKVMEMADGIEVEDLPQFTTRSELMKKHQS
UniProt Q96RD7, whole entry: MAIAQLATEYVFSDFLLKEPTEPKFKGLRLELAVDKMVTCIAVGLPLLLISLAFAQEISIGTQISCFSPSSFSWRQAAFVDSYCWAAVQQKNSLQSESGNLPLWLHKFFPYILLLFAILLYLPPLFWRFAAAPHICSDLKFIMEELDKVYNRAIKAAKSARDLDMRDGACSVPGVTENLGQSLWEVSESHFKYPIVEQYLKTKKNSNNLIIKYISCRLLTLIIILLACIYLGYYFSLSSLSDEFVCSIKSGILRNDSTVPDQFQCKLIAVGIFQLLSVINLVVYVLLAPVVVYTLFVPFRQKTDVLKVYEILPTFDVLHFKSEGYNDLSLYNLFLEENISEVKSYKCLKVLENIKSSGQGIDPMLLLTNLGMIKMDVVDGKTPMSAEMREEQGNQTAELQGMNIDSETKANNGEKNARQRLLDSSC
UniProt Q96K49: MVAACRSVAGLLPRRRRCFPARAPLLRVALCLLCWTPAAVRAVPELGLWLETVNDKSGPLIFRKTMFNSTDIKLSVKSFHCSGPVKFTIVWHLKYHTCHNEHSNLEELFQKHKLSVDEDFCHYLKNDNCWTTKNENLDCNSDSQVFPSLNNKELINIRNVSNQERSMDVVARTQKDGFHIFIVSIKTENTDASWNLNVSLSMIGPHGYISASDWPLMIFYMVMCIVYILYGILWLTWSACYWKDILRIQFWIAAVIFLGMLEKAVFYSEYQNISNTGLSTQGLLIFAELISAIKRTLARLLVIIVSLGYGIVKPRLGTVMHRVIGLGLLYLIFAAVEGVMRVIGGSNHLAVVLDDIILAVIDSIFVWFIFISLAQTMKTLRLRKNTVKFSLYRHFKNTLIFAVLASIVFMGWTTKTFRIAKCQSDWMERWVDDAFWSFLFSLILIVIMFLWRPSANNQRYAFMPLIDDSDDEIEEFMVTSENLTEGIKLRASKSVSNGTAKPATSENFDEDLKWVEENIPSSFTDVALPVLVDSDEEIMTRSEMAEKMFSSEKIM
UniProt Q96GD4, whole entry: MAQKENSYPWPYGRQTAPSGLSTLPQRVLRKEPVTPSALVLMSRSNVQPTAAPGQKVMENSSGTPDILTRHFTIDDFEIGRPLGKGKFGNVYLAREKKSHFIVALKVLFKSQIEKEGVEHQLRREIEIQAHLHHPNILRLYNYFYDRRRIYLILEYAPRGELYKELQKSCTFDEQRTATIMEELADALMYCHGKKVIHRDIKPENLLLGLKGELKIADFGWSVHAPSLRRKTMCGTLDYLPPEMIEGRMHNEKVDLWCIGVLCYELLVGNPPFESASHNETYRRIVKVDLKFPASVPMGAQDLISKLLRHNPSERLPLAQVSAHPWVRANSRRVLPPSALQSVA
UniProt Q99439: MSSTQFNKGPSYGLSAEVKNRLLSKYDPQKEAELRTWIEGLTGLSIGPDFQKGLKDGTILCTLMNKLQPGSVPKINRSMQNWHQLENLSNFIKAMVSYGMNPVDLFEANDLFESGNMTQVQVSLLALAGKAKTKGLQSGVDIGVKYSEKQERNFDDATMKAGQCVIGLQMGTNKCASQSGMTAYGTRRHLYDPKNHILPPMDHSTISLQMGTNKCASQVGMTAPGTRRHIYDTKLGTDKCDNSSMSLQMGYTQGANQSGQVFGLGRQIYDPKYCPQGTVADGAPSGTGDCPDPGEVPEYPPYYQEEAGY
UniProt Q96Q05, whole entry: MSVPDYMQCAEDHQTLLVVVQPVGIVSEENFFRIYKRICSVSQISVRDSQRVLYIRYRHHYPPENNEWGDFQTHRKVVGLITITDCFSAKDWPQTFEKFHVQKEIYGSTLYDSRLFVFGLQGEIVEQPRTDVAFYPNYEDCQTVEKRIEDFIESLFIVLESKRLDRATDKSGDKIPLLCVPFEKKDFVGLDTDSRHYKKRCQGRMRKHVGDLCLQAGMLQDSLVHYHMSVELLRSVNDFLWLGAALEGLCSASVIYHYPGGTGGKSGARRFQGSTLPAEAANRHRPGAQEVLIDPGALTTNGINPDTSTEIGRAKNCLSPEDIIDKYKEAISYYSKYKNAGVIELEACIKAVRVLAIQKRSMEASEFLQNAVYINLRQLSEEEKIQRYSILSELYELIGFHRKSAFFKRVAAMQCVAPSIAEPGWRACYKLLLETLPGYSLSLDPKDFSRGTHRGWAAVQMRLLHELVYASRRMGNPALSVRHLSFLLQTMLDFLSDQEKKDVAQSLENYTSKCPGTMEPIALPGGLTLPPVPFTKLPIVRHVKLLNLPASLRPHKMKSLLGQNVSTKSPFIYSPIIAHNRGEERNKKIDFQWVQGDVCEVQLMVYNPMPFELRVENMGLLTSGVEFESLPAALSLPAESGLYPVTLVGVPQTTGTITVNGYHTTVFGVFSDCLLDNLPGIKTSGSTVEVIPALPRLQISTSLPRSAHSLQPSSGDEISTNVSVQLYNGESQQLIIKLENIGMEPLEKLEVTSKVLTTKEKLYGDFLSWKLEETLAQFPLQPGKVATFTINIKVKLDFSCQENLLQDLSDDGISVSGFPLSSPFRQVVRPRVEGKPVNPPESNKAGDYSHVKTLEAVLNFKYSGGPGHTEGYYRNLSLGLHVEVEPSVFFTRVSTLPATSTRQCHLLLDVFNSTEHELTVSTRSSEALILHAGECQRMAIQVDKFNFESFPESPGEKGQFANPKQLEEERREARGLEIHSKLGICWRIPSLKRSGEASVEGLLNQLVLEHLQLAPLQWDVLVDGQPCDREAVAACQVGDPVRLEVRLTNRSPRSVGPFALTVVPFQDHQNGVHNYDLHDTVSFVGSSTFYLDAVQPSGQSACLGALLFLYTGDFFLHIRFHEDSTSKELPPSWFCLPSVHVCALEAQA
UniProt Q96IJ6: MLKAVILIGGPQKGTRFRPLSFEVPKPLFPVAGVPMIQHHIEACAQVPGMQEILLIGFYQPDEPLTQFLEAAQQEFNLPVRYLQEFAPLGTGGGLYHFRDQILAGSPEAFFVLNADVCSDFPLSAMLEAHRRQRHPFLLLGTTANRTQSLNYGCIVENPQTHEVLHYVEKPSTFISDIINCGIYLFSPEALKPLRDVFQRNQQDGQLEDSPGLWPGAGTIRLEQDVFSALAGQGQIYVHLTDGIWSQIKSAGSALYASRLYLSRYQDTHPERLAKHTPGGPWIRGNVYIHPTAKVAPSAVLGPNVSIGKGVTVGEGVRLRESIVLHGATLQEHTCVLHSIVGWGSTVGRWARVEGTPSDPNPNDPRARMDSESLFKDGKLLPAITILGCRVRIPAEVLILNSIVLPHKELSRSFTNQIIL
UniProt Q96ER9: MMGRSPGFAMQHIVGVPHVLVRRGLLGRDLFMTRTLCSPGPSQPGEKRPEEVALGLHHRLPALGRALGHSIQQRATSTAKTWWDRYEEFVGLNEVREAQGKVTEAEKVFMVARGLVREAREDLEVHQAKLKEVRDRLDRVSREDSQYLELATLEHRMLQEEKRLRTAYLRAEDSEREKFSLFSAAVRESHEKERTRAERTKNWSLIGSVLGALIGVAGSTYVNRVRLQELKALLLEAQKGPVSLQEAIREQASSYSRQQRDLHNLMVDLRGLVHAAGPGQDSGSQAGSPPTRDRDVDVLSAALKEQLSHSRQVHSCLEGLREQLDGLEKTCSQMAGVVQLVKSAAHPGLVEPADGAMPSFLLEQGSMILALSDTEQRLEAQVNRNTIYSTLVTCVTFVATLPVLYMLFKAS
UniProt Q96ND0: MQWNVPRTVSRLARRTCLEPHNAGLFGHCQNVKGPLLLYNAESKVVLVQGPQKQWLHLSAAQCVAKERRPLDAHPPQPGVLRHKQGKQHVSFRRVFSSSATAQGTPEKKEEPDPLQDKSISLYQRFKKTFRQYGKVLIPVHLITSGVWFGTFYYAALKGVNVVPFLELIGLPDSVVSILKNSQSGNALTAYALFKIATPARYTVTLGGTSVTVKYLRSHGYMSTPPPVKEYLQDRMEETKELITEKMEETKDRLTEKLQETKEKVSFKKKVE

This is one part of the list. The data scatter; read single values as rough.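 Many melting curves are irregular; where none melted, Tm was taken as 64 °C.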

Compound in the test: CCc1cnccc1C(=O)Nc1cc2c(cc1F)NC(=O)CC2
Description: melting temperature shift (DMSO Tm minus MBE1-treated Tm) in cellular thermal proteome profiling; higher = less thermal stabilization by MBE1 (negative = stabilized by MBE1). Particulars: A375; MBE1 concentration: 100 nM.
ANKRD27 (UniProt Q96NW4): the melting temperature shift worked out at 0.132 °C.

For the target MMAB (UniProt Q96EY8), the melting temperature shift is -0.604 °C.

For the target SMARCD1 (UniProt Q96GM5), the melting temperature shift is -0.359 °C.

As for VCPIP1 (UniProt Q96JH7), the melting temperature shift is -0.583 °C.

For the target UniProt Q96GE9, the melting temperature shift turned out to be 5.89 °C.

In the case of BTF3L4 (UniProt Q96K17), the melting temperature shift was -0.967 °C.

For the target UniProt Q96JQ2, the melting temperature shift is -0.336 °C.

As for MOCOS (UniProt Q96EN8), the melting temperature shift was -0.979 °C.

Turning to UniProt Q96HQ2, the melting temperature shift was -2.96 °C.

In the case of SGF29 (UniProt Q96ES7), the melting temperature shift was found to be 0.0122 °C.

In the case of UniProt Q96KN1, the melting temperature shift came to 1.47 °C.

PANX1 (UniProt Q96RD7): the melting temperature shift was -2.84 °C.

With CDC5L (UniProt Q99459), the melting temperature shift is -0.397 °C.

For UniProt Q96PM9, the melting temperature shift is 0.287 °C.

Turning to TMEM87B (UniProt Q96K49), the melting temperature shift came to 0.0122 °C.

Regarding UniProt Q96GD4, the melting temperature shift came out at 0.212 °C.

As for MVB12A (UniProt Q96EY5), the melting temperature shift is -0.979 °C.

With DDRGK1 (UniProt Q96HY6), the melting temperature shift was -1.27 °C.

For SPAG5 (UniProt Q96R06), the melting temperature shift was -0.984 °C.

For the target TMEM209 (UniProt Q96SK2), the melting temperature shift amounted to 0.782 °C.

With IFT74 (UniProt Q96LB3), the melting temperature shift was -1.14 °C.

Consider CNN2 (UniProt Q99439), for which the melting temperature shift worked out at 0.287 °C.

Turning to LTV1 (UniProt Q96GA3), the melting temperature shift is 0.904 °C.

In the case of SCLY (UniProt Q96I15), the melting temperature shift was -1.37 °C.

In the case of UniProt Q96EZ8, the melting temperature shift is -8.54 °C.

With TRAPPC9 (UniProt Q96Q05), the melting temperature shift was 0.153 °C.

Regarding PNKP (UniProt Q96T60), the melting temperature shift is -0.852 °C.

On to GMPPA (UniProt Q96IJ6), for which the melting temperature shift was -0.443 °C.

In the case of TGS1 (UniProt Q96RS0), the melting temperature shift was -0.573 °C.

Consider CCDC51 (UniProt Q96ER9), for which the melting temperature shift is -0.423 °C.

For the target FAM210A (UniProt Q96ND0), the melting temperature shift is -1.01 °C.

In the case of UniProt Q96FL9, the melting temperature shift amounted to 0.0488 °C.
